Patent publication US20140370521A1, “IDENTIFICATION OF TWO NOVEL BIOMARKERS FOR NIEMANN-PICK DISEASE TYPE C” (The USA , as Represented by the Secretary, Department of …, priority 2011, published 2014)

B1: Lifr (protein, UniProt P42703 44-1092, looked up)
Leukemia inhibitory factor …: LKRGVQDLKCTTNNMRVWDCTWPAPLGVSPGTVKDICIKDRFHSCHPLETTNVKIPALSPGDHEVTINYLNGFQSKFTLNEKDVSLIPETPEILDLSADFFTSSLLLKWNDRGSALPHPSNATWEIKVLQNPRTEPVALVLLNTMLSGKDTVQHWNWTSDLPLQCATHSVSIRWHIDSPHFSGYKEWSDWSPLKNISWIRNTETNVFPQDKVVLAGSNMTICCMSPTKVLSGQIGNTLRPLIHLYGQTVAIHILNIPVSENSGTNIIFITDDDVYGTVVFAGYPPDVPQKLSCETHDLKEIICSWNPGRITGLVGPRNTEYTLFESISGKSAVFHRIEGLTNETYRLGVQMHPGQEIHNFTLTGRNPLGQAQSAVVINVTERVAPHDPTSLKVKDINSTVVTFSWYLPGNFTKINLLCQIEICKANSKKEVRNATIRGAEDSTYHVAVDKLNPYTAYTFRVRCSSKTFWKWSRWSDEKRHLTTEATPSKGPDTWREWSSDGKNLIVYWKPLPINEANGKILSYNVSCSLNEETQSVLEIFDPQHRAEIQLSKNDYIISVVARNSAGSSPPSKIASMEIPNDDITVEQAVGLGNRIFLTWRHDPNMTCDYVIKWCNSSRSEPCLLDWRKVPSNSTETVIESDQFQPGVRYNFYLYGCTNQGYQLLRSIIGYVEELAPIVAPNFTVEDTSADSILVKWDDIPVEELRGFLRGYLFYFQKGERDTPKTRSLEPHHSDIKLKNITDISQKTLRIADLQGKTSYHLVLRAYTHGGLGPEKSMFVVTKENSVGLIIAILIPVAVAVIVGVVTSILCYRKREWIKETFYPDIPNPENCKALQFQKSVCEGSNALKTLEMNPCTPNNVEVLESRSIVPKIEDTEIISPVAERPGERSEVDPENHVVVSYCPPIIEEEITNPAADEVGGASQVVYIDVQSMYQPQAKAEEEQDVDPVVVAGYKPQMRLPISPAVEDTAAEDEEGKTAGYRPQANVNTWNLVSPDSPRSTDSNNEVVSFGSPCSINSRQFLIPPKDEDSPKSNGGGWSFTNFFQNKPND
B2: Ltf (protein, UniProt P08071 20-707, looked up)
Lactotransferrin: KATTVQWCAVSNSEEEKCLRWQNEMRKVGGPPLSCVKKSSTRQCIQAIVTNRADAMTLDGGTMFDAGKPPYKLRPVAAEVYGTKEQPRTHYYAVAVVKNSSNFHLNQLQGLRSCHTGIGRSAGWKIPIGTLRPYLNWNGPPASLEEAVSKFFSKSCVPGAQKDRFPNLCSSCAGTGANKCASSPEEPYSGYAGALRCLRDNAGDVAFTRGSTVFEELPNKAERDQYKLLCPDNTWKPVTEYKECHLAQVPSHAVVSRSTNDKEEAIWELLRQSQEKFGKKQASGFQLFASPSGQKDLLFKESAIGFVRVPQKVDVGLYLTFSYTTSIQNLNKKQQDVIASKARVTWCAVGSEEKRKCDQWNRASRGRVTCISFPTTEDCIVAIMKGDADAMSLDGGYIYTAGKCGLVPVLAENQKSSKSNGLDCVNRPVEGYLAVAAVRREDAGFTWSSLRGKKSCHTAVDRTAGWNIPMGLLANQTRSCKFNEFFSQSCAPGADPKSNLCALCIGDEKGENKCAPNSKERYQGYTGALRCLAEKAGNVAFLKDSTVLQNTDGKNTEEWARNLKLKDFELLCLDDTRKPVTEAKNCHLAIAPNHAVVSRTDKVEVLQQVLLDQQVQFGRNGQRCPGEFCLFQSKTKNLLFNDNTECLAKIPGKTTSEKYLGKEYVIATERLKQCSSSPLLEACAFLTQ

Tested on: Npc1-/- mouse liver
Experiment: Liver gene expression microarray, Npc1-/- versus control mice (Affymetrix Mouse GeneChip 1.0 ST)
Details: negative = lower in Npc1−/−
[1] = head prints "weeks" (column between 7 weeks and 11 weeks)

Molecule | FC (fold-change of expression between Npc1−/− and control mice) (3 weeks of age) | FC (fold-change of expression between Npc1−/− and control mice) (5 weeks of age) | FC (fold-change of expression between Npc1−/− and control mice) (7 weeks of age) | FC (fold-change of expression between Npc1−/− and control mice) (11 weeks of age) | FC (fold-change of expression between Npc1−/− and control mice) [1] | FC (fold-change of expression between Npc1−/− and control mice) (1 week of age)
B1 | −1.36 | −2.46 | −2.37 | −3.29 | −2.57 | 
B2 |  | 1.42 | 1.99 | 1.67 | 1.75 | −1.36

What was measured is the transcript of the gene that encodes the chain shown.
